# Measurements as given in the supplement of paper PMC8728848.
# The other results are listed elsewhere or left out.
# B1: Aap brpt (Staphylococcus epidermidis) (protein)
# chain: VDGDPITSTEEIPFDKKREFDPNLAPGTEKVVQKGEPGTKTITTPTTKNPLTGEKVGEGEPTEKITKQPVDEIVHYGGEEIKTGHKDEFDPNAPKGSQTTQPGKPGVKNPDTGEVVTPPVDDVTKYGPVDGDPITSTEEIPFDKKREFDPNLAPGTEKVVQKGEPGTKTITTPTTKNPLTGEKVGEGEPTEKITKQPVDEIVHYGGEEIKPGHKDEFDPNAPKGSQEDVPGKPGVKNPDTGEVVTPPVDDVTKYGPVDGDSITSTEEIPFDKKREFDPNLAPGTEKVVQKGEPGTKTITTPTTKNPLTGEKVGEGEPTEKITKQPVDEIVHYGGEQIPQGHKDEFDPNAPVDSKTEVPGKPGVKNPDTGEVVTPPVDDVTKYGPVDGDSITSTEEIPFDKKREFDPNLAPGTEKVVQKGEPGTKTITTPTTKNPLTGEKVGEGKSTEKVTKQPVDEIVEYGPTK
# Key:
# Experiment in all cases: glycan array binding signal (z-score within array); higher = stronger binding
# Conditions in all cases: glycan notation: IUPAC condensed, linker removed
# GlcNAc(b1-3)Gal(b1-4)Glc = target: GlcNAc(b1-3)Gal(b1-4)Glc
# In short: (§1)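 From the Consortium for Functional Glycomics database, 3228 arrays were curated, keeping only those whose protein sequence was available. Binding is given as a within-array Z-score averaged across arrays sharing a protein sequence and across linkers. Negative Z-scores can be read as non-binding.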
# [1] = target: GlcNAc(b1-3)Gal(b1-4)GlcNAc
# In short: as §1
# [2] = target: GlcNAc(b1-3)Gal(b1-4)GlcNAc(b1-2)Man(a1-3)[GlcNAc(b1-3)Gal(b1-4)GlcNAc(b1-2)Man(a1-6)]Man(b1-4)GlcNAc(b1-4)GlcNAc
# In short: as §1
# [3] = target: GlcNAc(b1-3)Gal(b1-4)GlcNAc(b1-2)Man(a1-3)[GlcNAc(b1-3)Gal(b1-4)GlcNAc(b1-2)Man(a1-6)]Man(b1-4)GlcNAc(b1-4)[Fuc(a1-6)]GlcNAc
# In short: as §1
# [4] = target: GlcNAc(b1-3)Gal(b1-4)GlcNAc(b1-2)[GlcNAc(b1-3)Gal(b1-4)GlcNAc(b1-6)]Man(a1-6)[GlcNAc(b1-3)Gal(b1-4)GlcNAc(b1-2)Man(a1-3)]Man(b1-4)GlcNAc(b1-4)GlcNAc
# In short: as §1
# [5] = target: GlcNAc(b1-3)Gal(b1-4)GlcNAc(b1-3)Gal(b1-4)GlcNAc
# In short: as §1
# [6] = target: GlcNAc(b1-3)Gal(b1-4)GlcNAc(b1-3)Gal(b1-4)GlcNAc(b1-2)Man(a1-3)[GlcNAc(b1-3)Gal(b1-4)GlcNAc(b1-3)Gal(b1-4)GlcNAc(b1-2)Man(a1-6)]Man(b1-4)GlcNAc(b1-4)GlcNAc
# In short: as §1
# [7] = target: GlcNAc(b1-3)Gal(b1-4)GlcNAc(b1-3)Gal(b1-4)GlcNAc(b1-2)Man(a1-3)[GlcNAc(b1-3)Gal(b1-4)GlcNAc(b1-3)Gal(b1-4)GlcNAc(b1-2)Man(a1-6)]Man(b1-4)GlcNAc(b1-4)[Fuc(a1-6)]GlcNAc
# In short: as §1
# [8] = target: GlcNAc(b1-3)Gal(b1-4)GlcNAc(b1-3)Gal(b1-4)GlcNAc(b1-2)[GlcNAc(b1-3)Gal(b1-4)GlcNAc(b1-3)Gal(b1-4)GlcNAc(b1-6)]Man(a1-6)[GlcNAc(b1-3)Gal(b1-4)GlcNAc(b1-3)Gal(b1-4)GlcNAc(b1-2)Man(a1-3)]Man(b1-4)GlcNAc(b1-4)[Fuc(a1-6)]GlcNAc
# In short: as §1
# [9] = target: GlcNAc(b1-3)Gal(b1-4)GlcNAc(b1-3)Gal(b1-4)GlcNAc(b1-3)Gal(b1-4)GlcNAc(b1-2)Man(a1-3)[GlcNAc(b1-3)Gal(b1-4)GlcNAc(b1-3)Gal(b1-4)GlcNAc(b1-3)Gal(b1-4)GlcNAc(b1-2)Man(a1-6)]Man(b1-4)GlcNAc(b1-4)GlcNAc
# In short: as §1
# [10] = target: GlcNAc(b1-3)Gal(b1-4)GlcNAc(b1-3)Gal(b1-4)GlcNAc(b1-3)Gal(b1-4)GlcNAc(b1-2)Man(a1-3)[GlcNAc(b1-3)Gal(b1-4)GlcNAc(b1-3)Gal(b1-4)GlcNAc(b1-3)Gal(b1-4)GlcNAc(b1-2)Man(a1-6)]Man(b1-4)GlcNAc(b1-4)[Fuc(a1-6)]GlcNAc
# In short: as §1
# [11] = target: GlcNAc(b1-3)Gal(b1-4)GlcNAc(b1-3)Gal(b1-4)GlcNAc(b1-3)Gal(b1-4)GlcNAc(b1-2)[GlcNAc(b1-3)Gal(b1-4)GlcNAc(b1-3)Gal(b1-4)GlcNAc(b1-3)Gal(b1-4)GlcNAc(b1-6)]Man(a1-6)[GlcNAc(b1-3)Gal(b1-4)GlcNAc(b1-3)Gal(b1-4)GlcNAc(b1-3)Gal(b1-4)GlcNAc(b1-2)Man(a1-3)]Man(b1-4)GlcNAc(b1-4)[Fuc(a1-6)]GlcNAc
# In short: as §1
# [12] = target: GlcNAc(b1-3)Gal(b1-4)GlcNAc(b1-3)Gal(b1-4)GlcNAc(b1-3)Gal(b1-4)GlcNAc(b1-3)Gal(b1-4)GlcNAc(b1-2)Man(a1-3)[GlcNAc(b1-3)Gal(b1-4)GlcNAc(b1-3)Gal(b1-4)GlcNAc(b1-3)Gal(b1-4)GlcNAc(b1-3)Gal(b1-4)GlcNAc(b1-2)Man(a1-6)]Man(b1-4)GlcNAc(b1-4)GlcNAc
# In short: as §1
# [13] = target: GlcNAc(b1-3)Gal(b1-4)GlcNAc(b1-3)Gal(b1-4)GlcNAc(b1-3)Gal(b1-4)GlcNAc(b1-3)Gal(b1-4)GlcNAc(b1-2)Man(a1-3)[GlcNAc(b1-3)Gal(b1-4)GlcNAc(b1-3)Gal(b1-4)GlcNAc(b1-3)Gal(b1-4)GlcNAc(b1-3)Gal(b1-4)GlcNAc(b1-2)Man(a1-6)]Man(b1-4)GlcNAc(b1-4)[Fuc(a1-6)]GlcNAc
# In short: as §1
# [14] = target: GlcNAc(b1-3)Gal(b1-4)GlcNAc(b1-3)Gal(b1-4)GlcNAc(b1-3)Gal(b1-4)GlcNAc(b1-3)Gal(b1-4)GlcNAc(b1-2)[GlcNAc(b1-3)Gal(b1-4)GlcNAc(b1-3)Gal(b1-4)GlcNAc(b1-3)Gal(b1-4)GlcNAc(b1-3)Gal(b1-4)GlcNAc(b1-6)]Man(a1-6)[GlcNAc(b1-3)Gal(b1-4)GlcNAc(b1-3)Gal(b1-4)GlcNAc(b1-3)Gal(b1-4)GlcNAc(b1-3)Gal(b1-4)GlcNAc(b1-2)Man(a1-3)]Man(b1-4)GlcNAc(b1-4)[Fuc(a1-6)]GlcNAc
# In short: as §1
# [15] = target: GlcNAc(b1-3)Gal(b1-4)GlcNAc(b1-3)Gal(b1-4)GlcNAc(b1-3)GalNAc
# In short: as §1
# [16] = target: GlcNAc(b1-3)Gal(b1-4)GlcNAc(b1-3)GalNAc
# In short: as §1
# [17] = target: GlcNAc(b1-3)Gal(b1-4)GlcNAc(b1-3)[GlcNAc(b1-3)Gal(b1-4)GlcNAc(b1-3)]GalNAc
# In short: as §1
# [18] = target: GlcNAc(b1-3)Gal(b1-4)GlcNAc(b1-6)[Gal(b1-3)]GalNAc
# In short: as §1
# [19] = target: GlcNAc(b1-3)Gal(b1-4)GlcNAc(b1-6)[GlcNAc(b1-3)Gal(b1-3)]GalNAc
# In short: as §1
# [20] = target: GlcNAc(b1-3)Gal(b1-4)GlcNAc(b1-6)[GlcNAc(b1-3)]Gal(b1-4)GlcNAc
# In short: as §1
# GlcNAc(b1-3)GalNAc = target: GlcNAc(b1-3)GalNAc
# In short: as §1
# GlcNAc(b1-3)Man = target: GlcNAc(b1-3)Man
# In short: as §1
# [21] = target: GlcNAc(b1-3)[GlcNAc(b1-4)][GlcNAc(b1-6)]GlcNAc
# In short: as §1
# [22] = target: GlcNAc(b1-3)[GlcNAc(b1-6)]Gal(b1-4)GlcNAc
# In short: as §1
# [23] = target: GlcNAc(b1-3)[GlcNAc(b1-6)]GalNAc
# In short: as §1
# [24] = target: GlcNAc(b1-4)Gal(b1-4)GlcNAc
# In short: as §1
# GlcNAc(b1-4)GlcNAc = target: GlcNAc(b1-4)GlcNAc
# In short: as §1
# [25] = target: GlcNAc(b1-4)GlcNAc(b1-4)GlcNAc
# In short: as §1
# [26] = target: GlcNAc(b1-4)GlcNAc(b1-4)GlcNAc(b1-4)GlcNAc(b1-4)GlcNAc
# In short: as §1
# [27] = target: GlcNAc(b1-4)GlcNAc(b1-4)GlcNAc(b1-4)GlcNAc(b1-4)GlcNAc(b1-4)GlcNAc
# In short: as §1
# [28] = target: GlcNAc(b1-4)[GlcNAc(b1-6)]GalNAc
# In short: as §1
# [29] = target: GlcNAc(b1-6)Gal(b1-4)GlcNAc
# In short: as §1
# GlcNAc(b1-6)GalNAc = target: GlcNAc(b1-6)GalNAc
# In short: as §1
# [30] = target: GlcNAc6S(b1-3)Gal(b1-4)GlcNAc
# In short: as §1
# Kdn(a2-3)Gal(b1-3)GalNAc = target: Kdn(a2-3)Gal(b1-3)GalNAc
# In short: as §1
# Kdn(a2-3)Gal(b1-3)GlcNAc = target: Kdn(a2-3)Gal(b1-3)GlcNAc
# In short: as §1
binder,measurement,setting,value
B1,glycan array binding signal (z-score),GlcNAc(b1-3)Gal(b1-4)Glc,-0.381
same,glycan array binding signal (z-score),[1],-0.004
same,glycan array binding signal (z-score),[2],0.533
same,glycan array binding signal (z-score),[3],-0.784
same,glycan array binding signal (z-score),[4],-0.649
same,glycan array binding signal (z-score),[5],-0.363
same,glycan array binding signal (z-score),[6],0.198
same,glycan array binding signal (z-score),[7],2.65
same,glycan array binding signal (z-score),[8],3.02
same,glycan array binding signal (z-score),[9],1.17
same,glycan array binding signal (z-score),[10],1.61
same,glycan array binding signal (z-score),[11],0.949
same,glycan array binding signal (z-score),[12],-0.289
same,glycan array binding signal (z-score),[13],0.525
same,glycan array binding signal (z-score),[14],1.02
same,glycan array binding signal (z-score),[15],0.235
same,glycan array binding signal (z-score),[16],0.112
same,glycan array binding signal (z-score),[17],0.48
same,glycan array binding signal (z-score),[18],-1.92
same,glycan array binding signal (z-score),[19],-0.394
same,glycan array binding signal (z-score),[20],0.488
same,glycan array binding signal (z-score),GlcNAc(b1-3)GalNAc,-0.448
same,glycan array binding signal (z-score),GlcNAc(b1-3)Man,-1.25
same,glycan array binding signal (z-score),[21],-0.444
same,glycan array binding signal (z-score),[22],-0.767
same,glycan array binding signal (z-score),[23],0.538
same,glycan array binding signal (z-score),[24],0.453
same,glycan array binding signal (z-score),GlcNAc(b1-4)GlcNAc,-0.727
same,glycan array binding signal (z-score),[25],0.541
same,glycan array binding signal (z-score),[26],-1.51
same,glycan array binding signal (z-score),[27],-0.028
same,glycan array binding signal (z-score),[28],1.07
same,glycan array binding signal (z-score),[29],1.15
same,glycan array binding signal (z-score),GlcNAc(b1-6)GalNAc,0.242
same,glycan array binding signal (z-score),[30],-0.559
same,glycan array binding signal (z-score),Kdn(a2-3)Gal(b1-3)GalNAc,1.59
same,glycan array binding signal (z-score),Kdn(a2-3)Gal(b1-3)GlcNAc,-1.94

# In a second layout: entries from further up
binder | measurement | setting | value
B1 | glycan array binding signal (z-score) | [11] | 0.949
same | glycan array binding signal (z-score) | [12] | -0.289
